# Measurements as given in article PMC12040169 (PLOS Biology, 2025).
# Some of the results follow.
# Tested on: T1, CTL2-GFP (C. trachomatis L2/434/Bu, GFP-expressing)
# T1 construct: L2/434/Bu, GFP-expressing
# Set-up: species or system HeLa; Intracellular C. trachomatis growth in HeLa cells, bulk GFP fluorescence relative to DMSO
# Conditions: bulk GFP, single well; 28.5 h, 10 µM; inhibitor
row,SMILES,% of control remaining [%]
1,O=C(Nc1cc(F)ccc1N1CCCC1)c1ccc(=O)n(CC(=O)N2CCCCC2)c1 [CBK286083],119.542
2,FC1(F)Oc2ccc(Nc3cncc(-c4cccs4)n3)cc2OC1(F)F [CBK065727],153.653
3,O=C(O)c1cccc(NS(=O)(=O)c2ccc(F)c(C(F)(F)F)c2)c1 [CBK155693],102.516
4,Cc1cc(NC(=O)CN2CC=C(c3ccc(C)o3)CC2)no1 [CBK283608],98.7474
5,C=Cn1ncc(CN2CCCC(O)(c3ccc(F)cc3)CC2)c1C (stereo not drawn) [CBK284837],139.658
6,CC(C)CCN(Cc1ccc(-c2ccc(S(C)(=O)=O)cc2)nc1)C1CCN(C(=O)OC(C)(C)C)CC1 [CBK165138],145.833
7,COc1cccc(CN2CCCC(c3nc(C)n4ccccc34)C2)c1 (stereo not drawn) [CBK282989],148.951
8,COc1ccc(C)cc1S(=O)(=O)N(C)CC(=O)Nc1cccc(SC)c1 [CBK267510],104.987
9,c1ccc2c(c1)CSCC2Oc1cncc(N2CCNCC2)n1 (stereo not drawn) [CBK172356T],108.537
10,Cc1ccc(/C(N)=N/OC(=O)CN(C)S(=O)(=O)c2ccc3ccccc3c2)cc1 [CBK267363],152.265
11,Cn1nccc1CCNS(=O)(=O)c1cccc(C(=O)N2CCCCC2)c1 [CBK307086],122.744
12,Cc1csc2c(NC(C)C)ncnc12 [CBK017059],144.326
13,NC(=O)CN1CC2(CCN(CCc3c[nH]c4ccccc34)CC2)c2ccccc21 [CBK126784],98.0718
14,COc1ccc2[nH]c3c(c2c1)CCNC31CCN(Cc2cc(F)cc(F)c2)C1 (stereo not drawn) [CBK039368],88.3185
15,Cn1c(=O)oc2ccc(C(=O)NCCN3CCCCC3CO)cc21 (stereo not drawn) [CBK307594],161.52
16,O=C1NCCNC(=O)C2(CCCCOc3ccccc31)CCN(C(=O)c1ccnnc1)CC2 [CBK292105],163.926
17,Cc1cc(C(=O)Nc2cccc(S(=O)(=O)N3CCOCC3)c2)sc1-c1ccccc1 [CBK268185],27.6951
18,Cc1cc(C(=O)N2CCC(c3nccn3C)CC2)ccc1F [CBK304355],141.877
19,CCc1c(S(=O)(=O)CCC(=O)OC)c2ccccc2[n+]([O-])c1C [CBK155469T],105.211
20,CCOc1ccccc1N1C(=O)CC(Sc2nc(-c3ccccc3)c3cc(Cl)ccc3n2)C1=O (stereo not drawn) [CBK265405],91.4945
21,O=C(N/N=C/c1ccc(O)cc1)C(=O)N/N=C/c1ccc(O)cc1 [CBK261625],100
22,COc1ccccc1NC(=O)CN(c1ccc(Br)cc1)S(C)(=O)=O [CBK265254],108.303
23,O=[N+]([O-])c1ccccc1/C=C\C=N\n1c(S)nnc1-c1ccc(Cl)cc1Cl [CBK264405],136.491
24,COC(=O)c1ccc(S(=O)(=O)N2CCc3ccccc3C2)cc1 [CBK068696],122.967
25,CN(C)S(=O)(=O)N(CC(=O)NCC1CCCO1)c1ccccc1 (stereo not drawn) [CBK268192],101.548
26,c1ccc2oc(-c3cncc(N4CCN(CCN5CCCC5)CC4)n3)cc2c1 [CBK066052],138.429

# 4 entries already listed, ordered by molar mass, low to high.
row,SMILES,% of control remaining [%]
21,O=C(N/N=C/c1ccc(O)cc1)C(=O)N/N=C/c1ccc(O)cc1 [CBK261625],100
24,COC(=O)c1ccc(S(=O)(=O)N2CCc3ccccc3C2)cc1 [CBK068696],122.967
19,CCc1c(S(=O)(=O)CCC(=O)OC)c2ccccc2[n+]([O-])c1C [CBK155469T],105.211
11,Cn1nccc1CCNS(=O)(=O)c1cccc(C(=O)N2CCCCC2)c1 [CBK307086],122.744

# Later entries:

row,SMILES,% of control remaining [%]
1,O=C1c2cccc3cccc(c23)C(=O)N1CC1CCN(CC(O)COCC2COc3ccccc3O2)CC1 (stereo not drawn) [CBK074412C],130.774
2,O=C(O)c1[nH]c2ccccc2c1NS(=O)(=O)c1cc(Cl)sc1Cl [CBK049886],122.035
3,Fc1ccc(NC(=S)NCC2CC2)c(F)c1 [CBK011398],127.302
4,O=C(Nc1ccc(OC(F)(F)F)cc1)c1cnc(-c2ccc(Cl)cc2)c(-c2ccco2)c1 [CBK037456],82.2707
5,COc1ccc(S(=O)(=O)Nc2nccc(-c3ccc(CN4C(=O)CCC4=O)cc3)n2)cc1 [CBK067438],120.46
6,Cn1cc(C(=O)N2CCc3nc(-c4cccc(F)c4)sc3C2)cn1 [CBK281910],165.202
7,CCN(CC)C(=O)c1cnoc1-c1ccc(Br)cc1 [CBK153725],115.085
8,Cc1cc(OCC(O)CN2CCN(CCO)CC2)cc(C)c1Cl (stereo not drawn) [CBK278248C],91.247
9,Cc1cccnc1NC(=O)c1ccc(NCCc2ccccc2)c([N+](=O)[O-])c1 [CBK269543],132.086
10,CCCCn1nccc1NC(=O)NC(C)c1n[nH]c(C)n1 (stereo not drawn) [CBK307486],90.653
11,CC1(CC(=O)Nc2ccccc2)NC(=S)N(c2ccccc2)N1 (stereo not drawn) [CBK265534],117.444
12,Cc1cc(C(=O)NCc2ccc(-c3csnn3)cc2)n[nH]1 [CBK149314],110.592
13,CCOC(=O)CN1CCN(c2nccnc2Oc2ccc(OC)c(OC)c2)CC1 [CBK083052T],104.261
14,O=C(CSc1nnc(-c2cccnc2)n1Cc1ccccc1)Nc1ccc(Br)cc1 [CBK267527],125.551
15,Cn1c(=O)n(C)c2cc(CNCc3ccc(C(=O)O)cc3)ccc21 [CBK286538],113.332
16,Cc1cc(C)c2nn[nH]c2c1CN1CCCC1 [CBK018196],100.882
17,CCc1c(C)sc(NC(=S)Nc2cnccn2)c1C(=O)OC [CBK267088],117.812
18,O=C(CC1S/C(=N/N=C/c2ccc(-c3ccc(Br)cc3)o2)NC1=O)Nc1ccccc1 (stereo not drawn) [CBK264499],139.912
19,Nc1ncc(-c2ccco2)nc1-c1ccc(F)c(Cl)c1 [CBK064013],230.45
20,O=C1Nc2cc(Cl)ccc2C(=O)N2CCN(C(=O)C3CCCCC3)C[C@H]12 [CBK289586],122.687
21,Cc1sc(-c2cccs2)nc1OC(=O)c1cccc(C(F)(F)F)c1 [CBK067748],93.3085
22,O=C(N[C@H]1CC[C@H](O)CC1)C1(Cc2cc(-c3ccc(F)cc3F)no2)CCOCC1 [CBK286352],112.29
23,Cn1c(CN2CCN(C3CCCCC3)C(=O)C2)nc2ccccc21 [CBK281893],140.706
24,O=C(CSCc1nc2ccccc2c(=O)n1-c1ccccc1Cl)Nc1ccccc1 [CBK070895],103.174
25,N=C(N)SCc1csc(-c2ccc(Br)cc2)n1 [CBK017064C],19.1703
26,Cc1cc(C)c2[nH]c(CC(=O)N(C)CCN(C)C)nc2c1 [CBK282727],149.762

row,SMILES,% of control remaining [%]
1,CC(=O)Oc1ccc(C(=O)NCc2ccc3c(c2)OCO3)cc1 [CBK264372],125.673
2,CCN(CC)CCCNc1nc2ccc(O)cc2s1 [CBK023880C],101.149
3,O=C(Cc1c[nH]c2ccccc12)Nc1cccnc1N1CCNCC1 [CBK028265T],126.616
4,CC(CCCC(C)(C)O)Nc1cncc(-c2ccc(C(N)=O)cc2)n1 (stereo not drawn) [CBK066071],131.988
5,Cc1nc(CC(NC(=O)C(c2ccccc2)c2ccccc2)c2ccc(F)cc2)cc(=O)[nH]1 (stereo not drawn) [CBK285669],122.702
6,COc1ccc(C(=O)NCC(=O)Nc2ccc(N3CCCCC3)cc2)cc1OC [CBK295199],132.834
7,O=C(Nc1ccc(N2CCOCC2)c(Cl)c1)c1cccc(-n2cnnc2)c1 [CBK269853],123.53
8,COCC(=O)N1CCN(Cc2cccc(-c3ccccn3)c2)CC1 [CBK304035],98.6661
9,CCn1c(SCC(=O)NC2CCCCC2C)nnc1-c1cc2cccc(OC)c2o1 (stereo not drawn) [CBK267148],202.813
10,CC(=O)NC(CSc1cc(C)nc2ccc(F)cc12)C(=O)O (stereo not drawn) [CBK286815],141.941
11,CNC(=O)CN1C(=O)CC2(C1=O)C(=O)N(CCOC)c1ccc(OC)cc12 (stereo not drawn) [CBK075144],100
12,O=[N+]([O-])c1cccc(-c2cc(Nc3ccc4[nH]ccc4c3)ncn2)c1 [CBK090860],205.927
13,CCCCSc1nc(N)cc(N2CCC(N3CCCC3=O)CC2)n1 [CBK307525],90.6456
14,CCCC(=O)NC(NC(=S)Nc1ccccc1Cl)C(Cl)(Cl)Cl (stereo not drawn) [CBK261026],81.0791
15,C#CCNCc1ccc(O)cc1 [CBK013235C],144.891
16,Cc1ccc2c(c1)OC(C)(C)CC2NS(=O)(=O)N1CCN(C)CC1 (stereo not drawn) [CBK307271],103.829
17,N#CCc1ccc(OC(=O)c2cccnc2)cc1 [CBK090304],88.0995
18,O=S(=O)(c1ccc(C(F)(F)F)cc1Cl)N1CCN(Cc2cccc(Br)c2)CC1 [CBK063163],113.642
19,Cc1ccc([N+](=O)[O-])c(OCCN2CCN(Cc3ccccc3)CC2)c1 [CBK268568G],114.307
20,COc1ccccc1NC(=O)CCn1c(C(F)F)cc2cccnc21 [CBK285065],127.131
21,COc1cc2c(c(OC)c1OC)C(c1ccccc1C)CC(=O)N2 (stereo not drawn) [CBK288205],118.038
22,CC1(NC(=O)CC2C(=O)NCCN2Cc2cccc(F)c2)CCC1 (stereo not drawn) [CBK281611],146.361
23,CC(=O)N[C@H]1CO[C@H]2[C@@H]1OC[C@H]2OC(=O)Nc1ccc(Oc2ccccc2)cc1 [CBK289470],88.3517
24,COc1ccc(C(C)c2cc3c(cc2OC)OCO3)c(F)c1 (stereo not drawn) [CBK200112],103.027
25,N#CC1=C(Nc2ccccc2)Oc2cc(N)ccc2C1c1cccnc1 (stereo not drawn) [CBK269435],88.7205
26,O=C(O)C1C2C=CC(C2)C1C(=O)N1CCN(Cc2ccc(Cl)cc2)CC1 (stereo not drawn) [CBK270318],136.222
